# Structures can show the parent of a compound that is named as a salt. Where two headings read alike, the source gives them in different places.
# Experiments:
# [1] = Pharmacokinetic study in naive mice after intraperitoneal injection; details: 3 mg/kg
# Procedure: Nine-week-old male Swiss mice (Janvier Labs, Le Genest-Saint-Isle, France), weighing 35–45 g at the time of experimentation, were used. […] Food and tap water were given ad libitum.
# Their hind legs were depilated after a 1 min application of a commercial depilatory cream and rinsed with water. Subsequently, the mice were returned to their cages to allow for recovery and complete anesthesia washout. On the day of the experiment, an initial blood sample (20–30 μL) was collected by perforation of the saphenous vein from the mice.
# For each treatment group, mice were subdivided into two cohorts, with blood samples collected at distinct time intervals after injection, totaling 14 time points for pharmacokinetic modeling. Compliance with regulatory directives prevented the collection of more than eight blood samples from individual animals. […] Blood samples were acquired using heparinized capillaries containing 2 μL of sodium heparin (Panpharma, France). After collection, the samples were transferred to Eppendorf tubes and centrifuged at 3000 g and 4°C for 10 min. The recovered plasma was then stored at −80°C until analysis. At the end of the experiments, the mice were euthanized by i.p. lethal injection (150 mg/kg) of sodium pentobarbital (Doléthal, Vétoquinol SA, France).
# Pharmacokinetic analysis was carried out from the average concentration values at each time point using the Phoenix WinNonLin Version 8.4 software (Certara, Princeton NJ, USA). Pharmacokinetic parameters were determined from the plasma concentration-time data using a compartmental approach and include the total area under the plasma concentration-time curve (AUC0-∞), elimination half-life (t1/2elim), total clearance (CL/F), and volume of distribution (V). CL and V were uncorrected for the bioavailability (F).
# [2] = guinea pig, intramuscular injection 0.4 mg/kg, one-compartment profile; cited from earlier work
# [3] = male, Swiss, mouse, in vivo, ip
smiles,measurement,setting,value
"CN1[C@@H]2CC[C@H]1C[C@@H](OC(=O)C(CO)c1ccccc1)C2 (some centres unmarked) [Atropine, Atropine sulfate monohydrate]",AUC,[1]; [3],0.113 µg·h/mL
same,Cmax,[1]; [3],0.251 ± 0.005 µg/mL
same,Tmax,"[1]; male, Swiss, mouse, in vivo, ip, T max, naive mice, plasma",8.2 min
same,Time after which plasma concentrations were below the LLOQ,"[1]; naive mice, i.p., LLOQ 0.5 ng/mL tiotropium, 1 ng/mL atropine",120 min
same,Tmax,[2],less than 10 min

# Reference: publication PMC11999743 (Journal of Analytical Methods in Chemistry, 2025)
